Assay results from patent US20100048677A1.
Results are given in words; binding and its absence hold for the method and conditions named. In cells and extracts the contact can be indirect. Some binding calls cover weakened binding; strength is not graded here.

Protein sequences, listed by entry. Tags and fused reporters are not part of them. Lines headed by an entry give the natural chain unless they say otherwise; changes in a name come on top. Chains listed by the source or under a name are the forms on record and can include a tag or linker. Residues count along the entry.
pro-αIIb (P08514, residues 32-1039): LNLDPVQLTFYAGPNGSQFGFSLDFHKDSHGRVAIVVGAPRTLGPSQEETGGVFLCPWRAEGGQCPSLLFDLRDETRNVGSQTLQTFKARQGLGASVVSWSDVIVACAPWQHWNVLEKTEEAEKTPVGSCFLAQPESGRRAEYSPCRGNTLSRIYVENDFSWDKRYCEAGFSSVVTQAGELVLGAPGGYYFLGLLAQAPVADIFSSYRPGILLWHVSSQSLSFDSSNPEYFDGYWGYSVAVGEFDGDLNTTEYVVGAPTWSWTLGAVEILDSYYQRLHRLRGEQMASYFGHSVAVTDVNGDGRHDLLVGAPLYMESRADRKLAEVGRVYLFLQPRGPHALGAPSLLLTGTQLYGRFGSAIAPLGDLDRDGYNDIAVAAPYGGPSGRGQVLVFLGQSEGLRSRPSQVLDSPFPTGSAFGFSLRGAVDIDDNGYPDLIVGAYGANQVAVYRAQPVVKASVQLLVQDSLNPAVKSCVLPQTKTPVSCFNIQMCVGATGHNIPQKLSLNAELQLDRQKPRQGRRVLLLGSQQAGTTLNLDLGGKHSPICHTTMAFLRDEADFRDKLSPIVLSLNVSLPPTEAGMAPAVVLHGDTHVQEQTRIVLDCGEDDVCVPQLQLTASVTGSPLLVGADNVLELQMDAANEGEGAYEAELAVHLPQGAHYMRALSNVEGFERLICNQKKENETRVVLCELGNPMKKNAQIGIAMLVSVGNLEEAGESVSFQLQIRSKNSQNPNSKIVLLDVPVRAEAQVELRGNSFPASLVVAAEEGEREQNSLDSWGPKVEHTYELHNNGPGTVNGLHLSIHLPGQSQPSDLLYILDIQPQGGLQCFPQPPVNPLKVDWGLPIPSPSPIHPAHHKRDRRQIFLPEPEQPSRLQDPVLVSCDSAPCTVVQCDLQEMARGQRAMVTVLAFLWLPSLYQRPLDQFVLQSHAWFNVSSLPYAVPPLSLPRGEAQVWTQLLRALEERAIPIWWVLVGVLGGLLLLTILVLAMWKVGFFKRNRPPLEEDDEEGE
pro-αIIb R858G/R859G (P08514, form named): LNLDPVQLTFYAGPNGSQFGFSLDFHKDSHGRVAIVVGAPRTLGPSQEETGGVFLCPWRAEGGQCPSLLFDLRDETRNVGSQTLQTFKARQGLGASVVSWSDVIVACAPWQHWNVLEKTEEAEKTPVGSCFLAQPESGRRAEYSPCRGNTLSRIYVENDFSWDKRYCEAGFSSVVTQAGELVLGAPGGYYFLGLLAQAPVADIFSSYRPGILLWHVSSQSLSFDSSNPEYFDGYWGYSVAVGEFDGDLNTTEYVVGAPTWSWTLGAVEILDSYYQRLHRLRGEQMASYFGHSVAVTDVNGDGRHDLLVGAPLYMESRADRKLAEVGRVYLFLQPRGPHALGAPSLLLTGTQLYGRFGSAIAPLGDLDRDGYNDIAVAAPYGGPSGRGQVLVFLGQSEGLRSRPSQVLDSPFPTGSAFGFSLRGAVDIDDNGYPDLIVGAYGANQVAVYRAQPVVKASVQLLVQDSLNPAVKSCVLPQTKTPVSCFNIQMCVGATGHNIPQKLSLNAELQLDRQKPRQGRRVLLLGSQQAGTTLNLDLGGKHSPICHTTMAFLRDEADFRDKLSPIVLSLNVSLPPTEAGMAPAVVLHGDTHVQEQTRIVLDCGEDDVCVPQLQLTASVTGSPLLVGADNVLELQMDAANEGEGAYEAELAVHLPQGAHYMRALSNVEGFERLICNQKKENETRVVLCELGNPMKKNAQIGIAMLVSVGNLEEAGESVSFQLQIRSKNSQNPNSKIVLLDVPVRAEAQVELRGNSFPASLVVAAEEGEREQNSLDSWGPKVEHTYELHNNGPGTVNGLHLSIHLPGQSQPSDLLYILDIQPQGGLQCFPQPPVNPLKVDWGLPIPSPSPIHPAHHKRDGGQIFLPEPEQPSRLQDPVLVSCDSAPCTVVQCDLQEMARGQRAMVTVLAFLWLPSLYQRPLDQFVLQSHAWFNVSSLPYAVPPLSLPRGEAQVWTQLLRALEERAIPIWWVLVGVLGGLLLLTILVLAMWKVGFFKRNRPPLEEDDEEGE
UniProt P05106: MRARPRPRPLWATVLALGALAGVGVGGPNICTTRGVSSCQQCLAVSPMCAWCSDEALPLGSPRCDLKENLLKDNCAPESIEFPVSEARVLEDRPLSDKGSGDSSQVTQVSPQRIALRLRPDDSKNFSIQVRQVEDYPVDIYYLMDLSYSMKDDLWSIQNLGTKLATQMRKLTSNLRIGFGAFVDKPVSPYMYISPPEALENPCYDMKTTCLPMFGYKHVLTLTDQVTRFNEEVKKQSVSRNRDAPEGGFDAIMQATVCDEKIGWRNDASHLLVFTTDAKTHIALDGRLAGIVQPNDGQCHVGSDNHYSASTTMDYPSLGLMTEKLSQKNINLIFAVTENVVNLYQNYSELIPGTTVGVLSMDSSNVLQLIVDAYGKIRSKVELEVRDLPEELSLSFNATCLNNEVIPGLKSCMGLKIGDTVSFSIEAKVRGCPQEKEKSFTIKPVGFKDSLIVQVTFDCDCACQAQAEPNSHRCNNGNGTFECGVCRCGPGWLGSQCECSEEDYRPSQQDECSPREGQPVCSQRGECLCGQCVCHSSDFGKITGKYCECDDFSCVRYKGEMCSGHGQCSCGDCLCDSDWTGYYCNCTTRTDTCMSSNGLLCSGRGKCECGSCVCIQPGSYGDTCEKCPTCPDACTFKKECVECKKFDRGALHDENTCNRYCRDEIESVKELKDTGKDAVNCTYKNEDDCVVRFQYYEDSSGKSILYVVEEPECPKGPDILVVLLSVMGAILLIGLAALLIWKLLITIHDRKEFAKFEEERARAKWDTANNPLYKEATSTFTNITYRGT

Tests used:
[1] = biological target: T1, αIIbβ3 (human) (UniProt P08514+P05106); test: co-immunoprecipitation
[2] = biological target: pro-αIIb (human) (UniProt P08514); test: co-immunoprecipitation with mAb BIB5
[3] = biological target: pro-αIIb R858G/R859G (human) (UniProt P08514); test: co-immunoprecipitation, HEK293 cells
[4] = biological target: T1, αIIbβ3 (human); test: co-immunoprecipitation, megakaryocytes
[5] = biological target: T1, αIIbβ3 (human); test: co-immunoprecipitation, immunoblot with anti-DNAJC10
[6] = biological target: pro-αIIbβ3 complex (human) (UniProt P08514+P05106); test: co-immunoprecipitation with conformation-specific mAbs
[7] = biological target: pro-αIIb (human) (UniProt P08514); test: co-immunoprecipitation with mAb B1B5, immunoblot for DNAJC10

Measured: binding

B1: DNAJC10 (DNAJ (HSP40) HOMOLOG, SUBFAMILY C, MEMBER 10) (protein)
chain: DQDFYSLLGVSKTASSREIRQAFKKLALKLHPDKNPNNPNAHGDFLKINRAYEVLKDEDLRKKYDKYGEKGLEDNQGGQYESWNYYRYDFGIYDDDPEIITLERREFDAAVNSGELWFVNFYSPGCSHCHDLAPTWRDFAKEVDGLLRIGAVNCGDDRMLCRMKGVNSYPSLFIFRSGMAPVKYHGDRSKESLVSFAMQHVRSTVTELWTGNFVNSIQTAFAAGIGWLITFCSKGGDCLTSQTRLRLSGMLDGLVNVGWMDCATQDNLCKSLDITTSTTAYFPPGATLNNKEKNSILFLNSLDAKEIYLEVIHNLPDFELLSANTLEDRLAHHRWLLFFHFGKNENSNDPELKKLKTLLKNDHIQVGRFDCSSAPDICSNLYVFQPSLAVFKGQGTKEYEIHHGKKILYDILAFAKESVNSHVTTLGPQNFPANDKEPWLVDFFAPWCPPCRALLPELRRASNLLYGQLKFGTLDCTVHEGLCNMYNIQAYPTTVVFNQSNIHEYEGHHSAEQILEFIEDLMNPSVVSLTPTTFNELVTQRKHNEVWMVDFYSPWCHPCQVLMPEWKRMARTLTGLINVGSIDCQQYHSFCAQENVQRYPEIRFFPPKSNKAYHYHSYNGWNRDAYSLRIWGLGFLPQVSTDLTPQTFSEKVLQGKNHWVIDFYAPWCGPCQNFAPEFELLARMIKGKVKAGKVDCQAYAQTCQKAGIRAYPTVKFYFYERAKRNFQEEQINTRDAKAIAALISEKLETLRNQGKRNKDEL
binds: all assays above
